Data as given in PubChem BioAssay AID1259308 (NCATS, 2017).
Assay: 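Candidate targets for better recombinant protein yield in mammalian cells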 (primary screen). Cell system: human HEK293 embryonic kidney cells stably expressing firefly luciferase (HEK-CMV-Luc2-Hygro). Reagents: single siRNA against human genes, 0.8 pmol siRNA per well. Time to read-out: 72 h. Measured: 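Reporter luminescence and viable-cell signal on separate replicate plates, given as percent of non-targeting control and median/MAD z-scores, plus per-cell luciferase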. Reading the numbers: total luciferase, z-score: higher = more reporter protein produced. Hit rule: 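An siRNA counts as active if its total luciferase robust z-score exceeds 3; genes with two or more such siRNAs out of three were retested with fresh siRNAs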. Calls: active = raised luciferase; inactive = no rise.
This is a random part of about 59,000 reagents tested. Of all reagents, about 1,510 (2.6%) got an active call. 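Calls use total luciferase alone and ignore viability, so some active siRNAs may act by altering cell number.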 Reagents against one gene are numbered here. Further read-outs or replicates are left out here.

Target gene | siRNA no. | total luciferase, z-score | call
LGALS8 (galectin 8) | 1 | -0.349 | inactive
LGALS8 (galectin 8) | 2 | 0.277 | inactive
LGALS8 (galectin 8) | 3 | 1.33 | inactive
BAIAP2L2 (BAR/IMD domain containing adaptor protein 2 like 2) | 1 | -1.61 | inactive
BAIAP2L2 (BAR/IMD domain containing adaptor protein 2 like 2) | 2 | -0.165 | inactive
BAIAP2L2 (BAR/IMD domain containing adaptor protein 2 like 2) | 3 | 1.37 | inactive
BEST2 (bestrophin 2) | 1 | 0.555 | inactive
BEST2 (bestrophin 2) | 2 | -0.101 | inactive
BEST2 (bestrophin 2) | 3 | 1.18 | inactive
DMRTC2 (DMRT like family C2) | 1 | -0.955 | inactive
DMRTC2 (DMRT like family C2) | 2 | 0.161 | inactive
DMRTC2 (DMRT like family C2) | 3 | -0.233 | inactive
ITPKC (inositol-trisphosphate 3-kinase C) | 1 | 2.36 | inactive
ITPKC (inositol-trisphosphate 3-kinase C) | 2 | 0.553 | inactive
ITPKC (inositol-trisphosphate 3-kinase C) | 3 | -1.3 | inactive
LPAR3 (lysophosphatidic acid receptor 3) | 1 | -0.542 | inactive
LPAR3 (lysophosphatidic acid receptor 3) | 2 | -1.43 | inactive
LPAR3 (lysophosphatidic acid receptor 3) | 3 | -0.821 | inactive
ZNF839P4 (zinc finger protein 839 pseudogene 4) | 1 | 0.635 | inactive
ZNF839P4 (zinc finger protein 839 pseudogene 4) | 2 | 0.455 | inactive
ZNF839P4 (zinc finger protein 839 pseudogene 4) | 3 | 0.459 | inactive
ZNF839P4 (zinc finger protein 839 pseudogene 4) | 4 | -0.954 | inactive
ZNF839P4 (zinc finger protein 839 pseudogene 4) | 5 | 0.25 | inactive
ZNF839P4 (zinc finger protein 839 pseudogene 4) | 6 | 0.498 | inactive
ZNF839P4 (zinc finger protein 839 pseudogene 4) | 7 | 2.92 | inactive
ZNF839P4 (zinc finger protein 839 pseudogene 4) | 8 | 2.62 | inactive
ZNF839P4 (zinc finger protein 839 pseudogene 4) | 9 | 2.04 | inactive

Look-ups from the entries so far.
Value of LGALS8 (galectin 8) #3 in “total luciferase, z-score”: 1.33
Under “total luciferase, z-score”, DMRTC2 (DMRT like family C2) #3 shows -0.233
